Some of the results follow.
molecular target: T1, OsSMF1 (Oryza sativa, UniProt Q6ZLB0 1-436); assay: protein-binding microarray (RPBM); PBS, 2% BSA, 51.3 ng/ul salmon testes DNA, 50 uM zinc acetate, 200 nM TF, 25 C, 1 h; high values mean tight binding; conditions: protein: recombinant; tags: N-terminal polyhistidine and DsRed monomer fusion (pET32a); chain copies: 2; label: CyDye5-dUTP incorporated in the synthesized complementary strand; 3' TTTTT single-stranded linker to array surface; dsDNA, one strand shown
T1 sequence: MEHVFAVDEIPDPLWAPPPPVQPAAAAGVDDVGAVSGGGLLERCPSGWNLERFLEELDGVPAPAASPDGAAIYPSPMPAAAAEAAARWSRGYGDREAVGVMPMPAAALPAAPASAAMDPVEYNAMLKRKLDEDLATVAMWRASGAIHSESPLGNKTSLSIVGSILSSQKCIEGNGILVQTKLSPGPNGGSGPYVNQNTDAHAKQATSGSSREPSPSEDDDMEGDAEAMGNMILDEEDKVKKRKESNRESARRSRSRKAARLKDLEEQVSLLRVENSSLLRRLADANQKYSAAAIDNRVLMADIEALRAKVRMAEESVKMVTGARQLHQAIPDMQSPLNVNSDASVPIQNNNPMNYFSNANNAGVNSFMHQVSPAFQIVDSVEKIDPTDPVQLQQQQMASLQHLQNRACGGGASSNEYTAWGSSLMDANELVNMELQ
Outline: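 Transcription factors, each fused N-terminally to a polyhistidine tag and DsRed, were expressed in E. coli BL21-CodonPlus and purified on Ni–NTA. A custom Agilent array was made double-stranded by primer extension with Cy5-dUTP and blocked with 2% BSA. It was incubated with 200 nM protein in PBS, 2% BSA, salmon testes DNA and 50 µM zinc acetate at 25 °C for 1 h, then washed. The binding signal is per-feature fluorescence intensity (arbitrary units) read on an Axon 4000B scanner.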

Sequence	binding signal
TTTAGACCACAAACCAAACCAGCCCATAGTAACAAATCTACGGAGTCACCTAGTGCAG	3410 fluorescence intensity (a.u.)
GGGTGGCAGTGGCGCCGAGGACGCACGCCACGTGTTTGACCGGAGTCACCTAGTGCAG	7490 fluorescence intensity (a.u.)
TCATTCCAACCAACTGACAGGCAGGAAAGAGACCTCAGTCCGGAGTCACCTAGTGCAG	37700 fluorescence intensity (a.u.)
TGCACGACACCGCTGGTGAGTCATGCGACACGTGTCATCGCGGAGTCACCTAGTGCAG	27600 fluorescence intensity (a.u.)
AGCGTACTACGTGTATACCGGCGTCGGTCGATCGACGGCACGGAGTCACCTAGTGCAG	3260 fluorescence intensity (a.u.)
ATTGCGCAGGCGCAGCAATATTGAATGGCCCAAATGCTAGCGGAGTCACCTAGTGCAG	23800 fluorescence intensity (a.u.)
TATTTTCGGGCTCACATGTTAGCCACCAAGTCAGAGGGAACGGAGTCACCTAGTGCAG	3640 fluorescence intensity (a.u.)
ATATGAGTCGATCAGATCGAGCTTCATATATACTAGACCACGGAGTCACCTAGTGCAG	3140 fluorescence intensity (a.u.)
TGTCATTGACTCACGTGGGTCCTACATGTCATTGAGCTTTCGGAGTCACCTAGTGCAG	10300 fluorescence intensity (a.u.)
GACATTACAGATTAACTAGTAACATGGTCATTAGTTGTCACGGAGTCACCTAGTGCAG	3460 fluorescence intensity (a.u.)
ACCCAGCGAGCTCACGTGACGCTGATAATAGTATAGATAGCGGAGTCACCTAGTGCAG	3500 fluorescence intensity (a.u.)
CCTCAATTATTTGCAAGATGGGGTCATCACTATTGTAGTACGGAGTCACCTAGTGCAG	4460 fluorescence intensity (a.u.)
TAGAATGTATGTTTGACGTCAGATGGTTTTAACTCCCTTGCGGAGTCACCTAGTGCAG	9400 fluorescence intensity (a.u.)
GAAGTGATTGATATTTGAGCAATTAGTCCGTTGTCAGGGTCGGAGTCACCTAGTGCAG	3300 fluorescence intensity (a.u.)
ACAGGCATCCACCCTCCAAATTACATTACACAGTACCTAGCGGAGTCACCTAGTGCAG	4820 fluorescence intensity (a.u.)
GAAACACGGAGATTTCAAGTGGAGTTCCGTAGTCATTTCACGGAGTCACCTAGTGCAG	3270 fluorescence intensity (a.u.)
CCTTTCGGGCAAATTTCAGTGTCATATATATTCACTGACCCGGAGTCACCTAGTGCAG	3850 fluorescence intensity (a.u.)
GCTGTCCTATGACATGGAGGACATCGCCGACACCTTCAAGCGGAGTCACCTAGTGCAG	3420 fluorescence intensity (a.u.)
TTAGAATGTCGGTCTCGCTGTTTGGCCATCCATCCGCGTGCGGAGTCACCTAGTGCAG	22500 fluorescence intensity (a.u.)
ACCTCCCTTATGATGAGTAATCTATTTACTGAACACATAACGGAGTCACCTAGTGCAG	3150 fluorescence intensity (a.u.)
TGGCCATCGCCTACGGTGAGCAGTCATCGTCGTCCATCCGCGGAGTCACCTAGTGCAG	4090 fluorescence intensity (a.u.)

As a short view, part of the list above.
Sequence	binding signal
GAAACACGGAGATTTCAAGTGGAGTTCCGTAGTCATTTCACGGAGTCACCTAGTGCAG	3270 fluorescence intensity (a.u.)
CCTTTCGGGCAAATTTCAGTGTCATATATATTCACTGACCCGGAGTCACCTAGTGCAG	3850 fluorescence intensity (a.u.)
GCTGTCCTATGACATGGAGGACATCGCCGACACCTTCAAGCGGAGTCACCTAGTGCAG	3420 fluorescence intensity (a.u.)

Additional entries follow:

Sequence	binding signal
CCCTGCCCGCTCTTACACGGCACGTCTCATTCAAATATGACGGAGTCACCTAGTGCAG	3360 fluorescence intensity (a.u.)
TGTTGGTAGCACAGTACACATCACGGTTCCGTAGCACCTGCGGAGTCACCTAGTGCAG	6290 fluorescence intensity (a.u.)
TGACTGCGATGACTGAGGATCTTTCAACAACACACAAGTGCGGAGTCACCTAGTGCAG	3550 fluorescence intensity (a.u.)
TTTTCCTACTTGCCCCTACACGTGGTAGAGAATACGGTTTCGGAGTCACCTAGTGCAG	6220 fluorescence intensity (a.u.)
CGACTACTTGTTCTTTTCGACGTGTAACATTGATCAAATACGGAGTCACCTAGTGCAG	3810 fluorescence intensity (a.u.)
TGACGGCGACAAGAACAGTGATAGCGAATATGAGTCTGACCGGAGTCACCTAGTGCAG	7670 fluorescence intensity (a.u.)
CAAGCTATAAACACAAGCTGATTCATTGCCTTTGCCTCTTCGGAGTCACCTAGTGCAG	4190 fluorescence intensity (a.u.)
TCGGCATAATTTGTATGACGTGTCCTATCACAACAAACTCCGGAGTCACCTAGTGCAG	13700 fluorescence intensity (a.u.)
CGAGTTGCTCGTATATTTTAATAGCCGACCGTCGCCGTGGCGGAGTCACCTAGTGCAG	3580 fluorescence intensity (a.u.)
GCACAAGCAAGCACACGTACGCCACAGAGCACACACAGCCCGGAGTCACCTAGTGCAG	3880 fluorescence intensity (a.u.)
TTTTAAACCGAGCGACCCACGTAGACATAAGAGGTGGTTACGGAGTCACCTAGTGCAG	5220 fluorescence intensity (a.u.)
TCGAATTTTCAGCCATATGATGATGTGTCAAGATTCGTGTCGGAGTCACCTAGTGCAG	11900 fluorescence intensity (a.u.)
GTTCCATCGCATGCTCAACTTGGGGCAGGTCAGGTAAGCTCGGAGTCACCTAGTGCAG	3170 fluorescence intensity (a.u.)
CTCGGGATTGCTAATTAGCGCACGTGTGTTTCCAACAAATCGGAGTCACCTAGTGCAG	3320 fluorescence intensity (a.u.)
CAATTCGATTCGTATCCCCACGTGCTCTTTCTTCTTCCTCCGGAGTCACCTAGTGCAG	4170 fluorescence intensity (a.u.)
CCCACATTTCAGTCACTAACCATAGGTGACACAGCTTTCGCGGAGTCACCTAGTGCAG	4570 fluorescence intensity (a.u.)
AGGTTGTCAGTGCTGACTGCTGACTGTGCTTGCACAGTTACGGAGTCACCTAGTGCAG	8180 fluorescence intensity (a.u.)
CCTATCGTGTGTTGCCGCGACCGCGCGCGACCCCGCGGCTCGGAGTCACCTAGTGCAG	3810 fluorescence intensity (a.u.)
AACCCAACTCAATGGCTCTAGCTTATTTTGTAATATCACTCGGAGTCACCTAGTGCAG	3480 fluorescence intensity (a.u.)
CAACGTCTGCTGCACGGCTTATTGCGTGGCTGTGAACGTCCGGAGTCACCTAGTGCAG	3280 fluorescence intensity (a.u.)
TCCACCGCTATCGGGTCGCACGTCACTGCTGGACTAACCACGGAGTCACCTAGTGCAG	9370 fluorescence intensity (a.u.)
